The full ranking holds about 1,500 compounds; the median of “activity” is about 2, and the lowest 2% start at about -18. The list shows a part of the results. Activity calls are given as the source filed them.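 Rule for the calls: active = inhibition of at least 40% at 10 µM; inconclusive = no clear call, values can overlap the other calls; inactive = the rest.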

Protein sequences, listed by entry. Tags and fused reporters are not part of them. Lines headed by an entry give the natural chain unless they say otherwise; changes in a name come on top.
UniProt O00391: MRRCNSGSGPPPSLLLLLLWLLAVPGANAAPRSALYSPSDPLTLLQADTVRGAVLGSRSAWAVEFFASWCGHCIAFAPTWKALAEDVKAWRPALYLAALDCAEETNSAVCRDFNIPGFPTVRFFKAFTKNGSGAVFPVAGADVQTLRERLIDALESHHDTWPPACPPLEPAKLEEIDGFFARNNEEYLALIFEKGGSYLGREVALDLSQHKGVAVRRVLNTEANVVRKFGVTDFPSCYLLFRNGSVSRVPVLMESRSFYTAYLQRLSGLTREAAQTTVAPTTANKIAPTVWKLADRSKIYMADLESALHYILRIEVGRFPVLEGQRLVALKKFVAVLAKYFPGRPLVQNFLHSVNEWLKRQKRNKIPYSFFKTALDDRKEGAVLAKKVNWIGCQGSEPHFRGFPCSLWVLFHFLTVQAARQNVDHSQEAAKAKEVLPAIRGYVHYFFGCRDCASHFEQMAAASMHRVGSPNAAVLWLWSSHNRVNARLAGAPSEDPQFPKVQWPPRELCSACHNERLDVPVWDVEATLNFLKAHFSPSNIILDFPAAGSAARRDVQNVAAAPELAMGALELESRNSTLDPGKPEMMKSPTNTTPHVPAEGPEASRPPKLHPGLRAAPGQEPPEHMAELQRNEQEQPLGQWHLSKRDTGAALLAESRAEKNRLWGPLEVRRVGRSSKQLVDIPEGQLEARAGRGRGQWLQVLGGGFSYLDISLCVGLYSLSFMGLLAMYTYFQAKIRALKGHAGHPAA

In the experiment the target is Sulfhydryl oxidase 1 (Homo sapiens) (UniProt O00391). Description: QSOX1 enzyme inhibitors, confirmation, biochemical, ROS-Glo luminescence, single concentration (AID 1347421).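 Note: 0% = DMSO wells with enzyme and 100% = wells lacking QSOX1 enzyme.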 The note with it: recombinant hQSOX1, RNase A substrate, ROS-Glo H2O2 luminescence; at 10 µM.
`CC(C)Cn1c(CN(C)Cc2ccco2)cnc1S(=O)(=O)CC1CCCO1` (configuration not stated): the activity came out at 4.1%.
The figure for `CN1CCc2nc3sc(C(=O)NCc4ccc(F)cc4)c(N)c3cc2C1` is inactive: -4.7%.
The figure for `CCOC(=O)C1(Cc2cccc(OC)c2)CCN(CC(C)CC)CC1` (configuration not stated) is 10.4%; for `Cc1cccnc1CN(C)C(=O)c1cc(-c2cnn(C)c2)nc2cc(F)ccc12` it is 10.2%; for `COc1cc(CN2CC[C@@H](N3CCCCCC3)[C@H](O)C2)ccc1F` it is 0.7%.
As for `CC(C)n1cc(CN2CCN(Cc3ccc(F)c(F)c3)C(CCO)C2)cn1` (configuration not stated), the activity stood at 1.2%.
The figure for `O=C(Nc1cccc(-n2cnnn2)c1)C1CCCN1CCCC(F)(F)F` (configuration not stated) is inactive: -2.9%; for `COc1ccccc1CNCc1ccc(C(=O)O)cc1` it is inactive: -12.9%; for `COc1ccc(CN2CCN(Cc3ccoc3)CC2CCO)c(F)c1` (configuration not stated) it is 3.2%.
As for `Cc1ccc(F)cc1CNCc1ccc(OCC(O)CN2CCN(C)CC2)cc1` (configuration not stated), the figure is 1.9%.
The figure for `CN(C)S(=O)(=O)N1CCC(Oc2ccc(C(=O)N3CCN(CC4CC4)CC3)cc2)CC1` is 4%; for `Cc1cccc(CS(=O)(=O)NCCN(C)C)c1` it is 7.7%.
As to `COC(=O)CCCNC(=O)C1CCC(=O)N(Cc2ccccc2OC)C1` (configuration not stated), the activity was 1.6%.
The figure for `NC(=O)C1CCN(C(=O)CN2CCC(Cc3ccccc3)CC2)CC1` is inactive: -15%; for `CN(Cc1cnccn1)C(=O)Nc1nnc(C(F)(F)F)s1` it is 5.5%.
As for `COC(=O)c1ccc(-c2noc(CN(C)CC3Cc4ccccc4O3)n2)cc1` (configuration not stated), the figure is 5.4%; as for `CC(=O)Nc1cccc(C(=O)N2CCN(c3ccccc3)CC2)c1`, 5.9%.
The figure for `O=C1COc2ccc(C(=O)NCc3ccco3)cc2N1` is inactive: -6.1%; for `COCCN1CCCC(O)(CN2CCCCCC2)C1=O` (configuration not stated) it is 10.4%; for `C=CCN1CCN(c2nc3c(c(=O)[nH]c(=O)n3C)n2CCc2ccccc2)CC1` it is inactive: -3.4%.
As for `CS(=O)(=O)N(CC(=O)N1CCCC1)Cc1ccc(F)cc1`, the activity is inactive: -19.7%.
As for `O=C(c1cn2cccnc2n1)N1CCOC(CCCc2ccccc2)C1` (configuration not stated), the figure is 2.1%; as for `Cc1cc(C(=O)N2CCC(CCC(=O)NCC3CCCO3)CC2)nc(C)n1` (configuration not stated), 18.8%.
The figure for `CSc1ccccc1C(=O)C1CCCN(S(=O)(=O)c2c(C)nn(C)c2C)C1` (configuration not stated) is 10.2%.
As for `COc1cccc(CNCc2ccc(F)cc2)c1`, the figure is inactive: -17.7%.
With `C=CCCC(=O)NC1CC(=O)N(Cc2cccc3ccccc23)C1` (configuration not stated), the activity was determined as 1%.
Turning to `Cc1ccccc1CCC1CCCN(C(=O)c2ccc(CN(C)C)o2)C1` (configuration not stated), the activity came to 6.7%.
As for `CCOC(=O)c1ccc2c(N)c(-c3cccnc3)sc2n1`, the figure is 0.7%; as for `CCC(c1ccc(OC)cc1)N(CC)C(=O)Nc1ccccc1` (configuration not stated), 2.6%; as for `COc1ccc(F)cc1S(=O)(=O)NC(C)C`, inactive: -2%.
As for `Fc1cccc(-c2cnnc(NCC(c3ccccn3)N3CCOCC3)n2)c1` (configuration not stated), the figure is 6.3%; as for `O=C(NC1CCCN(CCc2ccccc2)C1)c1cc2ccccc2oc1=O` (configuration not stated), 2.2%; as for `CN1CCC(N(C)C(=O)CCC2CCCN(C(=O)CN3CCCCC3=O)C2)CC1` (configuration not stated), 1.7%.
As for `COc1ccc(CNCCc2cscn2)cc1OCC(O)CN1CCCC1` (configuration not stated), the figure is inactive: -0.1%; as for `COCCC(=O)N1CCC(Oc2ccc(C(=O)N(C)Cc3cc(C)no3)cc2)CC1`, 2.6%.
Regarding `Cc1cccn2cc(Cn3ccc(-c4cccc(-c5cncnc5)c4)n3)nc12`, the activity was determined as 7.2%.
The figure for `C=CCNC(=O)C1CCN(S(=O)(=O)c2ccc3ccccc3c2)CC1` is inactive: -2.2%; for `Cc1nnc(SCC(=O)N2CCOC(CCc3ccccc3)C2)o1` (configuration not stated) it is 8.8%; for `O=C(C1CCC(O)CC1)N1CCC(C2CCN(CCc3ccccc3)C2)CC1` (configuration not stated) it is 0.3%.
The figure for `Cc1c(CN2CCCC(N3CCC(CO)CC3)C2)c(=O)n(-c2ccccc2)n1C` (configuration not stated) is 2.4%; for `COc1ccc(CNCCCn2cccn2)cc1OCC(O)CN(C)C(C)C` (configuration not stated) it is 2.5%; for `Cc1cccc(-c2noc(CN3CCN(c4ccc(F)cc4)CC3)n2)c1` it is 8.5%.
The figure for `COc1cc(-c2[nH]ncc2CN(C)Cc2ccccc2C(F)(F)F)cc(OC)c1OC` is 6%; for `COc1ccc(CN2CCNC(=O)C2CC(=O)NCCc2cscn2)cc1OC` (configuration not stated) it is inactive: -0.8%; for `COc1cccc(NC(=O)CCC2CCN(C(=O)c3cnsn3)CC2)c1` it is 2.1%.
On to `CCN(Cc1ccncc1)Cc1ccc(OCC(O)CN2CCSCC2)c(OC)c1` (configuration not stated), for which the activity is inactive: -1.3%.
As for `COc1cccc(CCC2CCCN(C(=O)CSc3ccncc3)C2)c1` (configuration not stated), the figure is inactive: -3.7%.
As for `CCOC(=O)C1(Cc2cccc(OC)c2)CCCN(C(=O)c2ccncc2)C1` (configuration not stated), the figure is 3.2%.
The figure for `CCCN1CCN(CC2(O)CCCN(Cc3cccc(C)c3)C2=O)CC1` (configuration not stated) is inactive: -5.4%; for `FC(F)(F)c1ccc(-c2noc(CN3CCCCCCC3)n2)cc1` it is 3.5%; for `COCCn1c(CN(C)Cc2cccnc2)cnc1S(=O)(=O)CC(C)(C)C` it is 7.7%.
As for `COc1cc(CNCC(C)(C)OC)ccc1OCC(O)CN(C)C(C)C` (configuration not stated), the activity was found to be 7.6%.
As for `CC(C)(C)C1(c2ccccc2)NC(=O)N(CC(=O)N2CCCCC2)C1=O` (configuration not stated), the figure is inactive: -23.9%; as for `O=C(NC1CC1)c1cccc(-n2cnnc2)c1`, 2.2%.
As for `CCCN(CC1CC1)C(=O)C1CCN(C2CCN(Cc3cccc(C)n3)CC2)CC1`, the figure is inactive: -0.4%.
`COc1cccc(CNC(=O)CCC2CCCN(c3ncccn3)C2)c1` (configuration not stated): the activity stood at 1.6%.
As for `COc1ccc(CN2CCN(Cc3ccsc3)CC2CCO)c(F)c1` (configuration not stated), the figure is 7.8%; as for `Cc1nc2nc(NC(=O)c3cccnc3)nn2c(C)c1Cl`, 4.5%; as for `Cc1nc(CC(=O)N2CCCC(CCC(=O)N(C)CCc3ccccn3)C2)cs1` (configuration not stated), inactive: -8%.
The figure for `CC(c1ccon1)N(C)Cc1cnc(S(C)(=O)=O)n1Cc1ccccc1F` (configuration not stated) is inactive: -1.3%.
For `Cc1ccc(-c2cn(S(=O)(=O)c3cccc4nsnc34)nc2N)cc1`, the activity was determined as 3.4%.
As for `CSc1ncc(Cl)c(C(=O)Nc2cccc(C)c2C)n1`, the figure is inactive: -16%; as for `CN(CCc1cnn(C)c1)C(=O)c1cn(Cc2ccc(F)cc2)nn1`, 13.8%; as for `O=CN1CCCN(C(=O)c2csc3nc(-c4ccccc4F)cn23)CC1`, 5.5%.
`COc1ccc(-c2noc(CN3CCCC(C(=O)c4cccs4)C3)n2)c(OC)c1OC` (configuration not stated): the activity came to 3.2%.
As to `COc1ccc(CNC(=O)CCC2CCCN(Cc3cccnc3)C2)c(OC)c1` (configuration not stated), the activity is 2.8%.
For the molecule `O=C(Cc1cccs1)NC1CC(=O)N(Cc2ccccc2C(F)(F)F)C1` (configuration not stated), the activity turned out to be 0.2%.
Take `O=C(NCCCN1CCOCC1)c1ccc2nc(Cc3ccccc3F)oc2c1`: the activity is inactive: -2.9%.
With `CN(C)CCC1CN(Cc2cnc(-c3ccccc3)s2)CCO1` (configuration not stated), the activity is inactive: -0.6%.
The figure for `Cc1ncsc1CCC(=O)NC1CCCN(C2CCN(C)CC2)C1` (configuration not stated) is inactive: -2.3%; for `COc1ccc(CN2CCC(O)CC2)cc1OCC(O)CN(C)Cc1ccccc1` (configuration not stated) it is 4.6%.
Turning to `Cc1oc(-c2ccco2)nc1CN(C)CC1COc2ccccc2O1` (configuration not stated), the activity stood at 4.7%.
For the molecule `CN1CCC(N2CCCC(NC(=O)/C=C/c3c(F)cccc3F)C2)CC1` (configuration not stated), the activity is 3.8%.
As for `Fc1ccc(C2(c3noc(C4=CCCCC4)n3)CCOC2)cc1` (configuration not stated), the figure is 7.5%.
As for `O=C1CCCN1CCCC(=O)N1CCOC(CCc2ccccc2)C1` (configuration not stated), the activity was 2.8%.
In the case of `COc1ccc(Br)cc1C(=O)NC(=S)Nc1ncccc1O`, the activity was found to be 3.2%.
`Cc1cccc(CCNC(=O)c2cn(Cc3ccc(F)cc3)nn2)n1`: the activity was inactive: -1.9%.
As for `CC(C)c1ccc(NC2CCCN(C(=O)CCC3=NNC(=O)CC3)C2)cc1` (configuration not stated), the figure is 4.8%; as for `NCC1CCN(c2cnn(CCCOCc3ccccc3)c(=O)c2)CC1`, 7.4%; as for `CN(C)S(=O)(=O)c1cccc(C(=O)NCc2ccccc2)c1`, inactive: -2.1%.
As to `COC(=O)c1sc2nc3c(c(C(F)(F)F)c2c1N)CN(C(C)=O)CC3`, the activity came out at 0.6%.
As to `O=C1CCCN1CC1CCN(Cc2c(C(=O)N3CCCC3)nc3ccccn23)CC1`, the activity came to 3%.
The figure for `O=C(NCCCn1cccn1)c1coc(CN2CCN(Cc3ccccc3)CC2)n1` is 8.8%.
Consider `COCCN1C(=O)c2cccnc2C1=O`, for which the activity amounted to 4.6%.
For the molecule `CCN1CCN(CC(O)COc2cccc(CNCc3ccc(C)s3)c2)CC1` (configuration not stated), the activity was inactive: -7.7%.
In the case of `O=C(NC1CCCN(C2CCCCCC2)C1)c1cc[n+]([O-])cc1` (configuration not stated), the activity turned out to be 2.5%.
`O=C(NCC1CCOCC1)c1ccc(OC2CCN(Cc3ccccn3)CC2)cc1`: the activity was found to be 6.6%.
As for `Cc1ccccc1-c1ccccc1C(=O)N1CCC(CCC(=O)N2CCOCC2)CC1`, the figure is inactive: -1.3%; as for `CN(CCc1ccccn1)C(=O)c1cc(COc2ccc(F)cc2F)on1`, 4.8%; as for `Fc1cccc(-c2n[nH]c3c2CN(Cc2ccsc2)CC3)c1`, 3.8%.
The figure for `COc1ccccc1N1CCN(C2CCCN(Cc3cccc(C(C)=O)c3)C2)CC1` (configuration not stated) is 0.4%; for `CN(C)CCN(CC1CCCN(Cc2ccccc2F)C1)C(=O)CCc1cnn(C)c1` (configuration not stated) it is 5.8%; for `c1ccc(-c2noc3c2CN(Cc2ccco2)CC3)cc1` it is inactive: -1.8%.
The figure for `O=C(CN1CCCCCC1)Nc1ccccc1C(F)(F)F` is inactive: -17.3%.
`C#CCN(Cc1ccco1)C(=O)c1cn(Cc2ccc(F)cc2)nn1`: the activity worked out at 3%.
The figure for `Fc1cccc(C2(CNc3ccc4[nH]ncc4c3)CCOC2)c1` (configuration not stated) is 0.6%; for `COc1cccc(-c2noc3c2CN(Cc2csc(C(C)=O)c2)CC3)c1` it is 8.2%; for `COCCN1CCC(CN(Cc2ccncc2)Cc2csc(C(C)=O)c2)CC1` it is inactive: -7.9%.
As for `COc1ccccc1N1CCN(C2CCCN(Cc3csc(C(C)=O)c3)C2)CC1` (configuration not stated), the figure is inactive: -2.8%; as for `O=C(CCC1CCCN(C(=O)CCN2CCCCO2)C1)NCc1ccc(F)c(F)c1` (configuration not stated), 4.7%.
In the case of `COc1ccc(CNCCc2scnc2C)cc1OCC(O)CN(C)C(C)C` (configuration not stated), the activity came out at 7.8%.
As for `COCc1nnc(NC(=O)CCSc2ccccc2)s1`, the figure is inactive: -9.1%.
As for `O=C(CCC1CCCN(c2cnccn2)C1)NCc1ccc(F)c(F)c1` (configuration not stated), the figure is 9.3%; as for `CCc1nc(CN2CCC(N3CCC(C(=O)NC(C)C)CC3)CC2)c(C)[nH]1`, 2%; as for `CCS(=O)(=O)N(C)c1ccc(C(=O)O)cc1`, inactive: -5.4%.
Take `COc1cccc2c1OCC(NCc1cc(F)ccc1-n1cccn1)C2` (configuration not stated): the activity is inactive: -1.9%.
In the case of `O=C(NCC1CCCN(C2CCCCC2)C1)c1ccc(F)cc1` (configuration not stated), the activity is 5.3%.

The values are drawn from PubChem BioAssay AID1347421 (Sanford-Burnham Center for Chemical Genomics, 2020).
